These are yes or no findings as the source states them, for the method shown. Binding calls can cover weak binding; strength is not graded here.
What was measured:
Test in all cases: lacO-lacI tethering
[1] = biological target: mCherry-lacI-ESCO2 with the PIP box deleted (UniProt Q56NI9)
[2] = biological target: mCherry-lacI-ESCO2 with Box B deleted (UniProt Q56NI9)
[3] = biological target: mCherry-lacI-ESCO2 with Box A deleted (UniProt Q56NI9)

Protein sequences, listed by entry. Tags and fused reporters are not part of them. Lines headed by an entry give the natural chain unless they say otherwise; changes in a name come on top.
UniProt Q56NI9: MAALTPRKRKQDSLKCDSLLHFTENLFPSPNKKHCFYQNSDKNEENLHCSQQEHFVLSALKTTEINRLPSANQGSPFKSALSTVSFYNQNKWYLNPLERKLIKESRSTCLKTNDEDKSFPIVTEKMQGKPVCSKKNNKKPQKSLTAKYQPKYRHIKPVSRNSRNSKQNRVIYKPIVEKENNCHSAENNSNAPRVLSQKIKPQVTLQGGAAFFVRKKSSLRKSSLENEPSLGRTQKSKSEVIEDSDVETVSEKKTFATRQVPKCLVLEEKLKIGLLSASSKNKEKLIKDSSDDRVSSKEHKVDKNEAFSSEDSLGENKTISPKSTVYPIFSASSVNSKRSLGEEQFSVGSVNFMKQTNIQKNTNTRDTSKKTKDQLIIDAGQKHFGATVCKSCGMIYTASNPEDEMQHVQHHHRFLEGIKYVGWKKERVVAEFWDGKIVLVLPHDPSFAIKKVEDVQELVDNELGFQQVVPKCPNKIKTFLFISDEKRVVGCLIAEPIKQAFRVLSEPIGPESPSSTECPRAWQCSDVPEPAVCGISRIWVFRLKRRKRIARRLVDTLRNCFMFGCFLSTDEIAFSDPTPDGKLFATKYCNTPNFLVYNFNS
UniProt P12004: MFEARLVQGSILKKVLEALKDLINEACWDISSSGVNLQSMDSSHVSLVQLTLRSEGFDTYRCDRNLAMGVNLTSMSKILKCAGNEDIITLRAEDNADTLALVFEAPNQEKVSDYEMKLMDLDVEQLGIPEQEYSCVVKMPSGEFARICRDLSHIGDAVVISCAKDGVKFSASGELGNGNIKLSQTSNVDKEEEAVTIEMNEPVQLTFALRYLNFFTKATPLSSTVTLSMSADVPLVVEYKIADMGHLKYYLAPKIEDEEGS

Measured: binding

GFP-PCNA (from UniProt P12004 1-261)
binds: [1] | [2] | [3]
